We go through 42 sequences from paper PMC7819943, “Rice protein-binding microarrays: a tool to detect cis-acting elements near promoter regions in rice”.

This is one part of the list.

In this test the target is T1, OsSMF1 (Oryza sativa, UniProt Q6ZLB0 1-436).
T1 sequence: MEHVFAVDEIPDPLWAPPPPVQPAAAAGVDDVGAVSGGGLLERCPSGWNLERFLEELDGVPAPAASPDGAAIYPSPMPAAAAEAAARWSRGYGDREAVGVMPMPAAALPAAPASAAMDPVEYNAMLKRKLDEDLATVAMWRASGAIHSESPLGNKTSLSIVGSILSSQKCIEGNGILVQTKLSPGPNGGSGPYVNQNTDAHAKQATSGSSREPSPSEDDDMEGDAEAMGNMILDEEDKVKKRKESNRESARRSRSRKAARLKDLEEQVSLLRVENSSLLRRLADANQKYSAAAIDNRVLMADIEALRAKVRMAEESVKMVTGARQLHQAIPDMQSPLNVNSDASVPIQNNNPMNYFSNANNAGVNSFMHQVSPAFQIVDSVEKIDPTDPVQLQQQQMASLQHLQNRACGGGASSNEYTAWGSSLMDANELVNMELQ
The test is described as follows: protein-binding microarray (RPBM); PBS, 2% BSA, 51.3 ng/ul salmon testes DNA, 50 uM zinc acetate, 200 nM TF, 25 C, 1 h; high values mean tight binding. To be noted: protein: recombinant; tags: N-terminal polyhistidine and DsRed monomer fusion (pET32a); chain copies: 2; label: CyDye5-dUTP incorporated in the synthesized complementary strand; 3' TTTTT single-stranded linker to array surface; dsDNA, one strand shown. An outline of the steps: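 Ni–NTA purification followed expression in E. coli BL21-CodonPlus of transcription factors fused N-terminally to a polyhistidine tag and DsRed. At 200 nM in PBS with 2% BSA, salmon testes DNA and 50 µM zinc acetate, the protein was incubated for 1 h at 25 °C with a custom Agilent array that had been primer-extended with Cy5-dUTP and blocked with 2% BSA. After washing, the array was read on an Axon 4000B scanner. The binding signal is per-feature fluorescence intensity in arbitrary units.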
In the case of “CTCATCTCTCGCCCAATCCGGGCCTCACGATGACACCTCGCGGAGTCACCTAGTGCAG”, the binding signal is 4480 fluorescence intensity (a.u.).

Take “GTGACTAGTTACCTGTGACGAGATGCAACCGGATGGCCCGCGGAGTCACCTAGTGCAG”: the binding signal was 3990 fluorescence intensity (a.u.).

As to “TAACTTTATATAAAGTTGTTAAGTAATATCACATTTCAAACGGAGTCACCTAGTGCAG”, the binding signal is 28200 fluorescence intensity (a.u.).

With “CCAAAACTCACAAAGCTTTGCACGTCAAACATATTAGAAGCGGAGTCACCTAGTGCAG”, the binding signal was 3540 fluorescence intensity (a.u.).

With “ATTTGTGGCCCGTTGTCCACGTTGCTGCCGAGTGTGAAAACGGAGTCACCTAGTGCAG”, the binding signal is 3790 fluorescence intensity (a.u.).

Consider “GCCACACCAGCCACACCACGCTCGCACGCCGCCTCCGCCGCGGAGTCACCTAGTGCAG”, for which the binding signal is 4290 fluorescence intensity (a.u.).

For the sequence “CTTTGTCTCACTGAGCGGTGGGCCCGGGCTGTCAGTGAGGCGGAGTCACCTAGTGCAG”, the binding signal was 3540 fluorescence intensity (a.u.).

For the sequence “CTTGGTAGGCTAGTCCGCCGCGTCAACACGACGTAACGGACGGAGTCACCTAGTGCAG”, the binding signal is 3490 fluorescence intensity (a.u.).

In the case of “CTTTTATACGCGCCAGTCACGCCGCCGCTCGTCCCGTTTCCGGAGTCACCTAGTGCAG”, the binding signal is 3460 fluorescence intensity (a.u.).

As to “GATTTAGATGAATGTCGAGGTGGCGGCGACTTGATGGTAGCGGAGTCACCTAGTGCAG”, the binding signal was 3600 fluorescence intensity (a.u.).

“ACACTCCAGATTCCTCTTTGCAGGACACGTCTCCTCTGCCCGGAGTCACCTAGTGCAG”: the binding signal was 5250 fluorescence intensity (a.u.).

Consider “GGCCCGAAACGCATACTCTGCCGGCGTACACATGTCACAGCGGAGTCACCTAGTGCAG”, for which the binding signal was 4040 fluorescence intensity (a.u.).

Take “CTCTATATCTACACACGTACGTGTGCTATAGCTAGCAGCTCGGAGTCACCTAGTGCAG”: the binding signal was 3340 fluorescence intensity (a.u.).

Take “CTCTTTCTCTCTACATATGAGACCCATGCTGACTAAGATTCGGAGTCACCTAGTGCAG”: the binding signal was 10000 fluorescence intensity (a.u.).

As to “GCCTCCATGCCGGACGCCAGGTCCGCCGCCGAGAATGCAACGGAGTCACCTAGTGCAG”, the binding signal is 3200 fluorescence intensity (a.u.).

With “CACCGACCGCACAAGTTTCAGCTGTCACCATCTCTTGGGCCGGAGTCACCTAGTGCAG”, the binding signal was 4230 fluorescence intensity (a.u.).

Turning to “GGGATAAAGAGAGGATGACACGTGGGACCCACATGTCAGCCGGAGTCACCTAGTGCAG”, the binding signal is 12400 fluorescence intensity (a.u.).

For the sequence “GGCGAGCGCGGCGGAGGAGCGGCGGCGGGCGAGCGCGGCGCGGAGTCACCTAGTGCAG”, the binding signal is 8450 fluorescence intensity (a.u.).

In the case of “CACCACCACCACGACGCCAACGTCAACGGCGAGGACCAAGCGGAGTCACCTAGTGCAG”, the binding signal was 3270 fluorescence intensity (a.u.).

With “GTAGAGGTCCCAGCACCTGTCCGCCATGGCGTTCACCTTGCGGAGTCACCTAGTGCAG”, the binding signal is 11700 fluorescence intensity (a.u.).

Consider “CCTGTATGGGTTGCCAACGGCGAAAACCCTGTCGCGGATCCGGAGTCACCTAGTGCAG”, for which the binding signal is 3360 fluorescence intensity (a.u.).

For the sequence “AGAGAGAACAATACAAATGATGTGTCAATTACACATCCATCGGAGTCACCTAGTGCAG”, the binding signal was 7190 fluorescence intensity (a.u.).

In the case of “AGATGAGCGAAGTGTACCCAACCACGTCAGGTGAATCCATCGGAGTCACCTAGTGCAG”, the binding signal was 8050 fluorescence intensity (a.u.).

As to “GGCTCCGTCAGGGTGATGTCGCCCCTTCGTCAATTTGTAACGGAGTCACCTAGTGCAG”, the binding signal was 4500 fluorescence intensity (a.u.).

Regarding “CTATGTTTTACACTTACACTCCTATCAAAATCCTACGTTTCGGAGTCACCTAGTGCAG”, the binding signal is 22600 fluorescence intensity (a.u.).

For the sequence “GACTTGTCCAACAAAATGTCCAACTCGCCACGTATAAATACGGAGTCACCTAGTGCAG”, the binding signal is 4500 fluorescence intensity (a.u.).

Turning to “CGCCACATGCTTCTGCTCACGTAGTGTAGTGGCGGTGGAACGGAGTCACCTAGTGCAG”, the binding signal was 3550 fluorescence intensity (a.u.).

Regarding “CCGCCTCCGCCTCCGCCTCCACCCACCACCACCACCGCCGCGGAGTCACCTAGTGCAG”, the binding signal was 3870 fluorescence intensity (a.u.).

“GTTTCAAGAACACAATGATGAGCTGTACCATCATCAATTGCGGAGTCACCTAGTGCAG”: the binding signal is 3180 fluorescence intensity (a.u.).

On to “TGCAGCTTACGTGTTGGCCCATATTTGGTTATGTTCGGGCCGGAGTCACCTAGTGCAG”, for which the binding signal is 6440 fluorescence intensity (a.u.).

For the sequence “TACATGCCCAGGTGCGGTACCCGTTGCCTGGTCAGGCTGGCGGAGTCACCTAGTGCAG”, the binding signal was 4000 fluorescence intensity (a.u.).

As for “GTTCCCGGCCACCGCGCACCGTATCGCCGCCGCCGCCGCGCGGAGTCACCTAGTGCAG”, the binding signal was 22100 fluorescence intensity (a.u.).

On to “GGCAGGCGGGACTGGGTTGGGCCGCGCGTCGCGTGGATGACGGAGTCACCTAGTGCAG”, for which the binding signal was 4520 fluorescence intensity (a.u.).

Regarding “TCGTTCTCCCGTGGCGAAACGATGGCGTGTGACATGCAGGCGGAGTCACCTAGTGCAG”, the binding signal is 4450 fluorescence intensity (a.u.).

Turning to “CCCCTCCACGTCGCTTGCAACTTTTACAAGAGGAAACCGGCGGAGTCACCTAGTGCAG”, the binding signal was 3330 fluorescence intensity (a.u.).

As for “TGTTCCACTGTTGTGTGTGTGGCATTCTTGTACTGCATTTCGGAGTCACCTAGTGCAG”, the binding signal was 3360 fluorescence intensity (a.u.).

As for “CTGCTGCGGTGGTGCCTGCGTGGCTGCGTCCCTTGTATCGCGGAGTCACCTAGTGCAG”, the binding signal was 7830 fluorescence intensity (a.u.).

Regarding “CAGCAGCCAGCTCAGCCAGCTAGCTTAGCTAGTCCGCGATCGGAGTCACCTAGTGCAG”, the binding signal is 5750 fluorescence intensity (a.u.).

As to “CCGGCATTTATTCCGGATCGAGAACCAATTTATTCATATTCGGAGTCACCTAGTGCAG”, the binding signal is 20100 fluorescence intensity (a.u.).

On to “CAAGCGCGTGCACACGTGTCCCCTTATCCACCCGGATGTCCGGAGTCACCTAGTGCAG”, for which the binding signal was 8610 fluorescence intensity (a.u.).

Consider “TAAAAGCAAGCCACGCGGGCCGCGAGGCCGCAACGCCGGTCGGAGTCACCTAGTGCAG”, for which the binding signal was 4020 fluorescence intensity (a.u.).

“GGCTGCTCTAGTTGGGCCCGCACGCAGGCAAAACAATTGCCGGAGTCACCTAGTGCAG”: the binding signal is 3210 fluorescence intensity (a.u.).
